{"source": "PubChem BioAssay AID686943, Drosophila RNAi Screening Center, 2013", "purpose": "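Fly genes whose loss alters ERK activation after insulin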 (primary screen)", "cell system": "Drosophila S2R+ haemocyte-like cells expressing YFP-tagged ERK (Rolled)", "knock-down reagent": "long dsRNA against Drosophila genes", "conditions": "insulin stimulation versus unstimulated cells; dose and duration not given", "read-out": "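Antibody staining for doubly phosphorylated ERK divided by ERK-YFP signal, as plate z-scores, in insulin-treated and untreated cells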", "direction": "replicate 1, z-score of dpERK with insulin: higher = more active ERK per ERK-YFP after insulin", "note": "The screen tested about 23,000 reagents; below is an unselected part of those with a known target gene and a result. 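Extra replicates exist only for a retested subset of genes; insulin dose and duration not given; both raised and lowered dpERK matter.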 Not all columns of the deposit are shown. Not stated in the record: the amount of reagent, the time to read-out."}
{"predicted target": "blow (blown fuse)", "DRSC id": "DRSC07586", "replicate 1, z-score of dpERK with insulin": -0.17}
{"predicted target": "Gpdh3 (Glycerol-3-phosphate dehydrogenase 3)", "DRSC id": "DRSC15325", "replicate 1, z-score of dpERK with insulin": 0.12}
{"predicted target": "Tsf2 (Transferrin 2)", "DRSC id": "DRSC09751", "replicate 1, z-score of dpERK with insulin": -1.2}
{"predicted target": "CG7655", "DRSC id": "DRSC16275", "replicate 1, z-score of dpERK with insulin": -0.31}
{"predicted target": "Gr33a (Gustatory receptor 33a)", "DRSC id": "DRSC02589", "replicate 1, z-score of dpERK with insulin": 0.56}
{"predicted target": "vri (vrille)", "DRSC id": "DRSC03633", "replicate 1, z-score of dpERK with insulin": -0.95}
{"predicted target": "CG31735", "DRSC id": "DRSC01518", "replicate 1, z-score of dpERK with insulin": -0.5}
{"predicted target": "Abcd3 (ATP binding cassette subfamily D member 3)", "DRSC id": "DRSC19488", "replicate 1, z-score of dpERK with insulin": -0.75}
{"predicted target": "Neurochondrin", "DRSC id": "DRSC12580", "replicate 1, z-score of dpERK with insulin": 1.14}
{"predicted target": "myd (mayday)", "DRSC id": "DRSC14762", "replicate 1, z-score of dpERK with insulin": 2.02}
{"predicted target": "myd (mayday)", "DRSC id": "DRSC15512", "replicate 1, z-score of dpERK with insulin": 0.79}
{"predicted target": "Ndg (Nidogen)", "DRSC id": "DRSC06223", "replicate 1, z-score of dpERK with insulin": -0.29}
{"predicted target": "RapGAP1 (Rap GTPase activating protein 1)", "DRSC id": "DRSC02293", "replicate 1, z-score of dpERK with insulin": -1.3}
{"predicted target": "RapGAP1 (Rap GTPase activating protein 1)", "DRSC id": "DRSC02294", "replicate 1, z-score of dpERK with insulin": -0.91}
{"predicted target": "RapGAP1 (Rap GTPase activating protein 1)", "DRSC id": "DRSC02295", "replicate 1, z-score of dpERK with insulin": -0.55}
{"predicted target": "RapGAP1 (Rap GTPase activating protein 1)", "DRSC id": "DRSC03406", "replicate 1, z-score of dpERK with insulin": 0.67}
{"predicted target": "inaF-A", "DRSC id": "DRSC19660", "replicate 1, z-score of dpERK with insulin": 0.07}
{"predicted target": "CG3909", "DRSC id": "DRSC14150", "replicate 1, z-score of dpERK with insulin": -0.2}
{"predicted target": "CR32733 (pseudo)", "DRSC id": "DRSC17481", "replicate 1, z-score of dpERK with insulin": 0.55}
{"predicted target": "CG4020", "DRSC id": "DRSC18337", "replicate 1, z-score of dpERK with insulin": -0.62}
{"predicted target": "CG6495", "DRSC id": "DRSC01993", "replicate 1, z-score of dpERK with insulin": -0.18}
{"predicted target": "CG10445", "DRSC id": "DRSC14247", "replicate 1, z-score of dpERK with insulin": 0.06}
{"predicted target": "CG13868", "DRSC id": "DRSC06427", "replicate 1, z-score of dpERK with insulin": 0.13}
{"predicted target": "Rbf2 (Retinoblastoma-family protein 2)", "DRSC id": "DRSC16816", "replicate 1, z-score of dpERK with insulin": 0.9}
{"predicted target": "Galphas (G protein alpha subunit s)", "DRSC id": "DRSC04616", "replicate 1, z-score of dpERK with insulin": -0.44}
{"predicted target": "Atx2 (Ataxin-2)", "DRSC id": "DRSC15727", "replicate 1, z-score of dpERK with insulin": -2.68}
{"predicted target": "Start1", "DRSC id": "DRSC04384", "replicate 1, z-score of dpERK with insulin": 0.56}
{"predicted target": "Rexo5 (RNA exonuclease 5)", "DRSC id": "DRSC10981", "replicate 1, z-score of dpERK with insulin": -0.49}
{"predicted target": "CG32582 (retired record)", "DRSC id": "DRSC19114", "replicate 1, z-score of dpERK with insulin": -0.11}
{"predicted target": "CG15142", "DRSC id": "DRSC02443", "replicate 1, z-score of dpERK with insulin": -0.77}
{"predicted target": "hdly (hadley)", "DRSC id": "DRSC15849", "replicate 1, z-score of dpERK with insulin": 0.1}
{"predicted target": "Rab3-GAP (Rab3 GTPase activating protein)", "DRSC id": "DRSC02001", "replicate 1, z-score of dpERK with insulin": 0.87}
{"predicted target": "vanin-like", "DRSC id": "DRSC17440", "replicate 1, z-score of dpERK with insulin": -0.48}
{"predicted target": "CG17764", "DRSC id": "DRSC18135", "replicate 1, z-score of dpERK with insulin": -0.24}
{"predicted target": "Lint-1 (l(3)mbt interacting protein 1)", "DRSC id": "DRSC19822", "replicate 1, z-score of dpERK with insulin": -1.45}
{"predicted target": "CG4712", "DRSC id": "DRSC06882", "replicate 1, z-score of dpERK with insulin": -0.02}
{"predicted target": "CG7110", "DRSC id": "DRSC03011", "replicate 1, z-score of dpERK with insulin": 0.24}
{"predicted target": "CG7110", "DRSC id": "DRSC03012", "replicate 1, z-score of dpERK with insulin": 0.98}
{"predicted target": "Pih1D1 (PIH1 domain containing 1)", "DRSC id": "DRSC02897", "replicate 1, z-score of dpERK with insulin": 0.93}
{"predicted target": "lectin-28C", "DRSC id": "DRSC03010", "replicate 1, z-score of dpERK with insulin": 0.14}

3 entries already listed, ordered by “replicate 1, z-score of dpERK with insulin”, high to low.
{"predicted target": "CG10445", "DRSC id": "DRSC14247", "replicate 1, z-score of dpERK with insulin": 0.06}
{"predicted target": "CG6495", "DRSC id": "DRSC01993", "replicate 1, z-score of dpERK with insulin": -0.18}
{"predicted target": "CG4020", "DRSC id": "DRSC18337", "replicate 1, z-score of dpERK with insulin": -0.62}
